Reference: article PMC12679367
These are yes or no findings as the source states them, for the method shown. In cells and extracts the contact can be indirect. Binding can be weak; no strength is given.

Chains of the proteins cited; added tags and fusions are not shown. Lines headed by an entry give the natural chain unless they say otherwise; changes in a name come on top. Residues count along the entry.
UniProt Q16236: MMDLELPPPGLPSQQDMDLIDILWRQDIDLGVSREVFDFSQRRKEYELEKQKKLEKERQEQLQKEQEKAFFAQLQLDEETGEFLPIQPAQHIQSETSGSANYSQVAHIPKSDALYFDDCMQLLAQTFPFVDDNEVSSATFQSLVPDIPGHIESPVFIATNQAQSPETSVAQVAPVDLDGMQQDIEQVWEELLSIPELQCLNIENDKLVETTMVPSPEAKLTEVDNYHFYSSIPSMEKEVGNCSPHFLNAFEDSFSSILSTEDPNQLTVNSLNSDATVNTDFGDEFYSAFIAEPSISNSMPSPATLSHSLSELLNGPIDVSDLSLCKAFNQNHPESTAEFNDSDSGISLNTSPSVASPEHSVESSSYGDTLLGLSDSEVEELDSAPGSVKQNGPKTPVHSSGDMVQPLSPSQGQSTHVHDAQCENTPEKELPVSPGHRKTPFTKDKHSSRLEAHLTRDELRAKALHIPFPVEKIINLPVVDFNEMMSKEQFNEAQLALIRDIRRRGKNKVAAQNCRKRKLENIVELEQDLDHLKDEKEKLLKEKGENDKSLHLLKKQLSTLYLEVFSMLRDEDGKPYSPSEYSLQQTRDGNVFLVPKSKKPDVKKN
UniProt O00217, residues 35-210: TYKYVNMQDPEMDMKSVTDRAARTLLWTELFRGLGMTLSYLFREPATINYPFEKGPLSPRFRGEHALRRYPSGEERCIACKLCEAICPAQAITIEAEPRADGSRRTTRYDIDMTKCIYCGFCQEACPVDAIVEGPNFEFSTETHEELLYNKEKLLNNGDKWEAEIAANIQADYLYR

What was measured:
[1] = biological target: T1, nuclear factor erythroid 2-related factor 2 (NRF2), endogenous in rat basal forebrain (rat (endogenous in basal forebrain)) (UniProt O54968); test: co-IP; 'in vivo' (Figure S6H); basal forebrain of sham and 2VO rats; captured by anti-NRF2 antibody with Protein A/G PLUS-Agarose, blot with anti-NDUFS8
T1 sequence: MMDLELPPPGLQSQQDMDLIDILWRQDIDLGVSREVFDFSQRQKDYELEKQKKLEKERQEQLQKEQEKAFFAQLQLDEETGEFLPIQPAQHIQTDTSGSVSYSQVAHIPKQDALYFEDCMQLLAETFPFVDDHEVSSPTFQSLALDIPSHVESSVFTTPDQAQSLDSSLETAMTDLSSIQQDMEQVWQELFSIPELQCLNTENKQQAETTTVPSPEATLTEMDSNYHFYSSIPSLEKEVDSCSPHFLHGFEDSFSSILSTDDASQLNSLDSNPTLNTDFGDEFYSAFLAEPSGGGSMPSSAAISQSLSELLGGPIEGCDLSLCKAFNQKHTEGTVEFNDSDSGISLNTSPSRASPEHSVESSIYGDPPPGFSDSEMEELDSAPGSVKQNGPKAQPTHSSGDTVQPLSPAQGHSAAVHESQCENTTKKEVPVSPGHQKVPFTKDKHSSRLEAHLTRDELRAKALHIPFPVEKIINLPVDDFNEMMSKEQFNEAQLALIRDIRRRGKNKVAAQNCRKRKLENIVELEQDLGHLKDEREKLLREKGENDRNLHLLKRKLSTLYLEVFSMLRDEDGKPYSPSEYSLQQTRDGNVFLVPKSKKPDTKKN

[2] = biological target: mutant NRF2 from the Mut-NRF2 plasmid (mutated in residues 230-270) (UniProt Q16236); test: co-IP; HEK293T cells transfected with WT-NRF2 or Mut-NRF2 plasmid (Figure 6E); captured by anti-NRF2 antibody with Protein A/G PLUS-Agarose, blot with anti-NDUFS8; NDUFS8/NRF2 ratio quantified, n = 6

Row | binding [1] | binding [2] | Substance
1 | binds | – | NADH dehydrogenase (ubiquinone) Fe-S protein 8 (NDUFS8), endogenous in rat basal forebrain
2 | – | binds | NADH dehydrogenase (ubiquinone) Fe-S protein 8 (NDUFS8) in HEK293T cells (from UniProt O00217 35-210)
